Results published in PMC11549326.
Results are given in words; binding and its absence hold for the method and conditions named. In cells and extracts the contact can be indirect. Some results given as binding are weak or reduced against the parent protein; the word gives no strength.

Amino acid sequences for entries named in this document (tags omitted).
UniProt Q61768: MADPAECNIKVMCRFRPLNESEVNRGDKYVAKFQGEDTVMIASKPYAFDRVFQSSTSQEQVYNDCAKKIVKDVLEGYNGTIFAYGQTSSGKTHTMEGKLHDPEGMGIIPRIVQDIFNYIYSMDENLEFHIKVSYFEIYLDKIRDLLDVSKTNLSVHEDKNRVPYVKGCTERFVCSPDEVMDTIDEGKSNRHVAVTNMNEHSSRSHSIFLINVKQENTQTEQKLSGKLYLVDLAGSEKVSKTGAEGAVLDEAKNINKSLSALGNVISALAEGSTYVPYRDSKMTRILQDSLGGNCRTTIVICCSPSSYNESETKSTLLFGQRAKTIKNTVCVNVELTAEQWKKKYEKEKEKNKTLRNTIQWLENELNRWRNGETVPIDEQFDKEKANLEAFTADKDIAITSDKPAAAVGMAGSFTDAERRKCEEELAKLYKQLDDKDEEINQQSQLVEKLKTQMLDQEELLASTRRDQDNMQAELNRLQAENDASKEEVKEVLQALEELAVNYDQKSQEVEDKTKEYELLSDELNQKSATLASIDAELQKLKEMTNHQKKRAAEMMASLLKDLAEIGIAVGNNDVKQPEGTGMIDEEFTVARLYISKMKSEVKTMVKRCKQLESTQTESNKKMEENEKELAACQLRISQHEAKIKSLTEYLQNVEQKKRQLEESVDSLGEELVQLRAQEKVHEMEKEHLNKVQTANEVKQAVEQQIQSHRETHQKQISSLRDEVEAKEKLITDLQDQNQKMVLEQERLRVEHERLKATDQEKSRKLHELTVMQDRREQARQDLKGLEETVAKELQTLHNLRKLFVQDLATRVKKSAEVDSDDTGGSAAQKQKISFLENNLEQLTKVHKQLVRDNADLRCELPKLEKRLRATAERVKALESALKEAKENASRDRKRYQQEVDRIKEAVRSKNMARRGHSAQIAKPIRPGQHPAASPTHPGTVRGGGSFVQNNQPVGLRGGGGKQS

Legend:
[1] = target: T1, KATP channel subunit Kir6.2 (mouse (endogenous in MIN6)) (UniProt Q61743); assay: co-IP; vesicle IP of MIN6 postnuclear fractions (10 mM HEPES pH 7.4, 150 mM NaCl, 0.1% Triton X-100) on protein A beads with anti-CaV1.2, anti-Kir6.2 or anti-STIP1 antibody or normal rabbit IgG, immunoblotting; cells transduced with scrambled-control or KIF5B-knockdown miRNA for 6 days and treated with 10 uM MG-132 for 6 h; also non-transduced against KIF5B- and Hsc70-overexpressing cells
T1 sequence: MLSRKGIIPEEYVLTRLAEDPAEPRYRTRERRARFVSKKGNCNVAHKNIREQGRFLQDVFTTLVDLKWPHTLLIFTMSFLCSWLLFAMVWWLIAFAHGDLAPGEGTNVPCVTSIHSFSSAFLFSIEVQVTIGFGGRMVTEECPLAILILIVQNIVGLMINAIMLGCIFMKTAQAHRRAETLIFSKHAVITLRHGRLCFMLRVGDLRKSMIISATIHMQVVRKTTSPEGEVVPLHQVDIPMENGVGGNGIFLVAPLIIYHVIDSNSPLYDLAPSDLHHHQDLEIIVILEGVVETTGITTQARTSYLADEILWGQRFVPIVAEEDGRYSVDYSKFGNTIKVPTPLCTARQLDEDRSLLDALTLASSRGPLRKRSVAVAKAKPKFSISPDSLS

[2] = target: voltage-gated calcium channel CaV1.2 (mouse (endogenous in MIN6 and in mouse primary beta cells)) (UniProt Q01815); assay: as above

| Substance | binding [1] | binding [2] |
| --- | --- | --- |
| KIF5B (from UniProt Q61768 1-963) | binds | – |
| STIP1 (Hop) protein (from UniProt Q60864 1-543) | binds weakly | binds |
| voltage-gated calcium channel CaV1.2 (from UniProt Q01815 1-2139) | binds weakly | – |
